Assay [1] has as its target T1, Vtc2-TAPm (S. cerevisiae) (UniProt P43585).
T1 sequence: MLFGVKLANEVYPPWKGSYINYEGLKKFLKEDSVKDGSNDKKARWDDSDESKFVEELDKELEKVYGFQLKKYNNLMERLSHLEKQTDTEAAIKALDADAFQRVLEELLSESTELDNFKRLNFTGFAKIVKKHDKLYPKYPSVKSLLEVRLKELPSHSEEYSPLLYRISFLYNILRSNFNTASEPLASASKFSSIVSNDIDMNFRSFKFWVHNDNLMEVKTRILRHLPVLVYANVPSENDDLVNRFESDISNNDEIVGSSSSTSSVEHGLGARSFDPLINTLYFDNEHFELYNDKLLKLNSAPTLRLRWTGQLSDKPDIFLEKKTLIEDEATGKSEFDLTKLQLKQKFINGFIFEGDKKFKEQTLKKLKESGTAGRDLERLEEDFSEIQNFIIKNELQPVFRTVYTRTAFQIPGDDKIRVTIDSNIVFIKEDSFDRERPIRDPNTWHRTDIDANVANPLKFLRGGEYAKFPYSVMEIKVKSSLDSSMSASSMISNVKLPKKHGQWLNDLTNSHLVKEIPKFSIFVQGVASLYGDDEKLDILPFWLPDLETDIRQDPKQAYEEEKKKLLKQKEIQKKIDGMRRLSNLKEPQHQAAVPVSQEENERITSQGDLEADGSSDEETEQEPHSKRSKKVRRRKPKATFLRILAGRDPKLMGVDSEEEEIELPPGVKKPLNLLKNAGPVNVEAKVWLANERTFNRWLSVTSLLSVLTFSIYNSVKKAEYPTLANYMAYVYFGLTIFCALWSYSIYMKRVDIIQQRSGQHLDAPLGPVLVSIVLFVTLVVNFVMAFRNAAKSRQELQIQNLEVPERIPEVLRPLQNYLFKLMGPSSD
Kind of assay: affinity co-purification of the endogenous complex.

The target of assay [2] is T2, Vtc3(Δlp) (S. cerevisiae) (UniProt Q02725).
T2 sequence: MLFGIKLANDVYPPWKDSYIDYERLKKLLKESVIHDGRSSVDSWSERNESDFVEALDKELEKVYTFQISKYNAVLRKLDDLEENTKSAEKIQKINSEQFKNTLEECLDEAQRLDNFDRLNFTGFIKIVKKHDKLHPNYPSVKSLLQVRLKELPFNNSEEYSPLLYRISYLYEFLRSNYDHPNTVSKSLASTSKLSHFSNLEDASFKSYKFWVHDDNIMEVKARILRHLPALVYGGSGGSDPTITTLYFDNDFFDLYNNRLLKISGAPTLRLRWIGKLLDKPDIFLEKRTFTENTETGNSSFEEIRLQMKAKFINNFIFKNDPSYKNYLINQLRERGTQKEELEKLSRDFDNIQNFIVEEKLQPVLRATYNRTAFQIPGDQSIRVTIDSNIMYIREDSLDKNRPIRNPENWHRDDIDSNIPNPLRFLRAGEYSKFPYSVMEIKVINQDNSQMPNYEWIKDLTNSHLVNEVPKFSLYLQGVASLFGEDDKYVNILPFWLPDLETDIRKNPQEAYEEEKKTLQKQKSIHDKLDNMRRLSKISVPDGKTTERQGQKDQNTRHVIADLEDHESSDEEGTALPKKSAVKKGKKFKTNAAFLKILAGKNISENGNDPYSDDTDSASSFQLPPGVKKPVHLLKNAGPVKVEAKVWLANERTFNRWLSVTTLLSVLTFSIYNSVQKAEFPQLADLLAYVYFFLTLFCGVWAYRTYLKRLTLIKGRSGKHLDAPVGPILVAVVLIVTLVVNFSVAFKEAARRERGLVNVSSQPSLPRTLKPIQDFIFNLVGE
Kind of assay: affinity co-purification of the endogenous complex.

Assay [3] concerns the target T1, Vtc2-TAPm (S. cerevisiae). Put plainly: co-IP.
The target in assay [4] is T1, Vtc2-TAPm (S. cerevisiae). Put plainly: affinity co-purification of the endogenous complex. This is another data set of the same source.
The target of assay [5] is T2, Vtc3(Δlp) (S. cerevisiae). Kind of assay: affinity co-purification of the endogenous complex. The source holds these as a separate data set.
In a further assay the target is T3, Vtc3-TAPm (S. cerevisiae, UniProt Q02725 1-835).
T3 sequence: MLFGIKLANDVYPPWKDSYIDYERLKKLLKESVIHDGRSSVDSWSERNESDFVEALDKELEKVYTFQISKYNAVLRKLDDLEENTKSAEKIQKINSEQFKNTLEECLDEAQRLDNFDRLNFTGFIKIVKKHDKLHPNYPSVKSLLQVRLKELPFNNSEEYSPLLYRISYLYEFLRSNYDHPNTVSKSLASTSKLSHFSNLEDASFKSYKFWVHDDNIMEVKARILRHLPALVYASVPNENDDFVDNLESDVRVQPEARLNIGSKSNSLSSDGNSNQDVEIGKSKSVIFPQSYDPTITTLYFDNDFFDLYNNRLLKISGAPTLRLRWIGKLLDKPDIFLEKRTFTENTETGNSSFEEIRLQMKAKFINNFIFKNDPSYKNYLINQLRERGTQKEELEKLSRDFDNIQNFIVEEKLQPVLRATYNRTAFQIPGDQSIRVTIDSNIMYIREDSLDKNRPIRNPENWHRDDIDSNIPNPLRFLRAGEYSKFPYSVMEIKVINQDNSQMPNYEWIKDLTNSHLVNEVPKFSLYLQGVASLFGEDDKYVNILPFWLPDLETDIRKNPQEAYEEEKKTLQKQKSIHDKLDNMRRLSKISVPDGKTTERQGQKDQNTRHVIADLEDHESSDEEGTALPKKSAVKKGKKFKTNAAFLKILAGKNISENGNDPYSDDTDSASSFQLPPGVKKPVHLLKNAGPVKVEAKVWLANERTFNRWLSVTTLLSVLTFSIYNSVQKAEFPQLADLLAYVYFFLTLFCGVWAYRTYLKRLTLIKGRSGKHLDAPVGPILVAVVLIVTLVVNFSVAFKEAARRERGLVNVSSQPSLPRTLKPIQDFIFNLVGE
Put plainly: co-IP.

Experimental findings from doi:10.1101/2023.01.27.525886 (bioRxiv, 2023) are described below.

Like-named read-outs stand apart in the source and are kept apart here. These are yes or no findings as the source states them, for the method shown. For part of these data: In cells and extracts the contact can be indirect. Some entries that bind do so weakly or less than the wild type.

B1: Vtc4 (natural protein)
chain: MKFGEHLSKSLIRQYSYYYISYDDLKTELEDNLSKNNGQWTQELETDFLESLEIELDKVYTFCKVKHSEVFRRVKEVQEQVQHTVRLLDSNNPPTQLDFEILEEELSDIIADVHDLAKFSRLNYTGFQKIIKKHDKKTGFILKPVFQVRLDSKPFFKENYDELVVKISQLYDIARTSGRPIKGDSSAGGKQQNFVRQTTKYWVHPDNITELKLIILKHLPVLVFNTNKEFEREDSAITSIYFDNENLDLYYGRLRKDEGAEAHRLRWYGGMSTDTIFVERKTHREDWTGEKSVKARFALKERHVNDFLKGKYTVDQVFAKMRKEGKKPMNEIENLEALASEIQYVMLKKKLRPVVRSFYNRTAFQLPGDARVRISLDTELTMVREDNFDGVDRTHKNWRRTDIGVDWPFKQLDDKDICRFPYAVLEVKLQTQLGQEPPEWVRELVGSHLVEPVPKFSKFIHGVATLLNDKVDSIPFWLPQMDVDIRKPPLPTNIEITRPGRSDNEDNDFDEDDEDDAALVAAMTNAPGNSLDIEESVGYGATSAPTSNTNHVVESANAAYYQRKIRNAENPISKKYYEIVAFFDHYFNGDQISKIPKGTTFDTQIRAPPGKTICVPVRVEPKVYFATERTYLSWLSISILLGGVSTTLLTYGSPTAMIGSIGFFITSLAVLIRTVMVYAKRVVNIRLKRAVDYEDKIGPGMVSVFLILSILFSFFCNLVAK
For B1, the binding result in assay [1] and in assay [2] was “binds” each time.

B2: Vtc3-Strep (protein, UniProt Q02725 1-835)
chain: T3 sequence
Consider B2, for which, in assay [3], the binding result is “no binding”.

B3: Vtc1 (natural protein)
chain: MSSAPLLQRTPGKKIALPTRVEPKVFFANERTFLSWLNFTVMLGGLGVGLLNFGDKIGRVSAGLFTFVAMGTMIYALVTYHWRAAAIRRRGSGPYDDRLGPTLLCFFLLVAVIINFILRLKYNDANTKL
In the case of B3, the binding result in assay [4] and in assay [5] was “binds” throughout.

B4: Vtc2-Strep (protein, UniProt P43585 1-828)
chain: T1 sequence
Turning to B4, the binding entry with Vtc3-TAPm is listed as “no binding”.
